# In the supplement of paper PMC8728848:
# This is one part of the list.
# B1: Protectin (Homo sapiens), P13987 (protein)
# chain: MGIQGGSVLFGLLLVLAVFCHSGHSLQCYNCPNPTADCKTAVNCSSDFDACLITKAGLQVYNKCWKFEHCNFNDVTTRLRENELTYYCCKKDLCNFNEQLENGGTSLSEKTVLLLVTPFLAAAWSLHP
# What was measured:
# Assay in all cases: glycan array binding signal (z-score within array); higher = stronger binding
# Settings in all cases: glycan notation: IUPAC condensed, linker removed
# [1] = target: Neu5Ac(a2-3)Gal(b1-4)GlcNAc(b1-3)GalNAc
# Method in brief: (§1)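 The binding signal is a Z-score computed within each array and averaged over linkers. Arrays of the same protein sequence at different concentrations or buffers were also averaged together. Data originate from 3228 arrays in the Consortium for Functional Glycomics database, kept only where the protein sequence was available.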
# [2] = target: Neu5Ac(a2-3)Gal(b1-4)GlcNAc(b1-6)[Gal(b1-3)]GalNAc
# Method in brief: as §1
# [3] = target: Neu5Ac(a2-3)Gal(b1-4)GlcNAc(b1-6)[Neu5Ac(a2-3)Gal(b1-3)]GalNAc
# Method in brief: as §1
# [4] = target: Neu5Ac(a2-3)Gal(b1-4)GlcNAc6S
# Method in brief: as §1
# [5] = target: Neu5Ac(a2-3)Gal(b1-4)[Fuc(a1-3)]GlcNAc
# Method in brief: as §1
# [6] = target: Neu5Ac(a2-3)Gal(b1-4)[Fuc(a1-3)]GlcNAc(b1-3)Gal
# Method in brief: as §1
# [7] = target: Neu5Ac(a2-3)Gal(b1-4)[Fuc(a1-3)]GlcNAc(b1-3)Gal(b1-4)GlcNAc
# Method in brief: as §1
# [8] = target: Neu5Ac(a2-3)Gal(b1-4)[Fuc(a1-3)]GlcNAc(b1-3)Gal(b1-4)[Fuc(a1-3)]GlcNAc(b1-3)Gal(b1-4)[Fuc(a1-3)]GlcNAc
# Method in brief: as §1
# [9] = target: Neu5Ac(a2-3)Gal(b1-4)[Fuc(a1-3)]GlcNAc(b1-3)GalNAc
# Method in brief: as §1
# [10] = target: Neu5Ac(a2-3)Gal(b1-4)[Fuc(a1-3)]GlcNAc(b1-6)[Gal(b1-3)]GalNAc
# Method in brief: as §1
# [11] = target: Neu5Ac(a2-3)Gal(b1-4)[Fuc(a1-3)]GlcNAc6S
# Method in brief: as §1
# [12] = target: Neu5Ac(a2-3)Gal6S(b1-4)GlcNAc
# Method in brief: as §1
# [13] = target: Neu5Ac(a2-3)Gal6S(b1-4)[Fuc(a1-3)]GlcNAc
# Method in brief: as §1
# Neu5Ac(a2-3)GalNAc = target: Neu5Ac(a2-3)GalNAc
# Method in brief: as §1
# [14] = target: Neu5Ac(a2-3)GalNAc(b1-4)GlcNAc
# Method in brief: as §1
# [15] = target: Neu5Ac(a2-3)[GalNAc(b1-4)]Gal(b1-4)Glc
# Method in brief: as §1
# [16] = target: Neu5Ac(a2-3)[GalNAc(b1-4)]Gal(b1-4)GlcNAc
# Method in brief: as §1
# [17] = target: Neu5Ac(a2-3)[GalNAc(b1-4)]Gal(b1-4)GlcNAc(b1-3)GalNAc
# Method in brief: as §1
# [18] = target: Neu5Ac(a2-3)[Neu5Ac(a2-6)]GalNAc
# Method in brief: as §1
# Neu5Ac(a2-6)Gal = target: Neu5Ac(a2-6)Gal
# Method in brief: as §1
# [19] = target: Neu5Ac(a2-6)Gal(b1-3)GlcNAc(b1-3)[Gal(b1-4)GlcNAc(b1-6)]Gal(b1-4)Glc
# Method in brief: as §1
# Neu5Ac(a2-6)Gal(b1-4)Glc = target: Neu5Ac(a2-6)Gal(b1-4)Glc
# Method in brief: as §1
# [20] = target: Neu5Ac(a2-6)Gal(b1-4)GlcNAc
# Method in brief: as §1
# [21] = target: Neu5Ac(a2-6)Gal(b1-4)GlcNAc(b1-2)Man(a1-3)Man(b1-4)GlcNAc(b1-4)GlcNAc
# Method in brief: as §1
# [22] = target: Neu5Ac(a2-6)Gal(b1-4)GlcNAc(b1-2)Man(a1-3)[Gal(b1-4)GlcNAc(b1-2)Man(a1-6)]Man(b1-4)GlcNAc(b1-4)GlcNAc
# Method in brief: as §1
# [23] = target: Neu5Ac(a2-6)Gal(b1-4)GlcNAc(b1-2)Man(a1-3)[GlcNAc(b1-2)Man(a1-6)]Man(b1-4)GlcNAc(b1-4)GlcNAc
# Method in brief: as §1
# [24] = target: Neu5Ac(a2-6)Gal(b1-4)GlcNAc(b1-2)Man(a1-3)[GlcNAc(b1-2)Man(b1-4)GlcNAc(b1-2)Man(a1-6)]Man(b1-4)GlcNAc(b1-4)GlcNAc
# Method in brief: as §1
# [25] = target: Neu5Ac(a2-6)Gal(b1-4)GlcNAc(b1-2)Man(a1-3)[Man(a1-6)]Man(b1-4)GlcNAc(b1-4)GlcNAc
# Method in brief: as §1
# [26] = target: Neu5Ac(a2-6)Gal(b1-4)GlcNAc(b1-2)Man(a1-3)[Neu5Ac(a2-6)Gal(b1-4)GlcNAc(b1-2)Man(a1-6)]Man(b1-4)GlcNAc(b1-4)GlcNAc
# Method in brief: as §1
# [27] = target: Neu5Ac(a2-6)Gal(b1-4)GlcNAc(b1-2)Man(a1-6)Man(b1-4)GlcNAc(b1-4)GlcNAc
# Method in brief: as §1
# [28] = target: Neu5Ac(a2-6)Gal(b1-4)GlcNAc(b1-2)Man(a1-6)[Gal(b1-4)GlcNAc(b1-2)Man(a1-3)]Man(b1-4)GlcNAc(b1-4)GlcNAc
# Method in brief: as §1
# [29] = target: Neu5Ac(a2-6)Gal(b1-4)GlcNAc(b1-2)Man(a1-6)[GlcNAc(b1-2)Man(a1-3)]Man(b1-4)GlcNAc(b1-4)GlcNAc
# Method in brief: as §1
# [30] = target: Neu5Ac(a2-6)Gal(b1-4)GlcNAc(b1-2)Man(a1-6)[Man(a1-3)]Man(b1-4)GlcNAc(b1-4)GlcNAc
# Method in brief: as §1
# [31] = target: Neu5Ac(a2-6)Gal(b1-4)GlcNAc(b1-3)Gal(b1-3)GlcNAc
# Method in brief: as §1
# [32] = target: Neu5Ac(a2-6)Gal(b1-4)GlcNAc(b1-3)Gal(b1-4)GlcNAc
# Method in brief: as §1
# [33] = target: Neu5Ac(a2-6)Gal(b1-4)GlcNAc(b1-3)Gal(b1-4)GlcNAc(b1-3)Gal(b1-4)GlcNAc
# Method in brief: as §1
# [34] = target: Neu5Ac(a2-6)Gal(b1-4)GlcNAc(b1-3)Gal(b1-4)[Fuc(a1-3)]GlcNAc(b1-3)Gal(b1-4)[Fuc(a1-3)]GlcNAc
# Method in brief: as §1
# [35] = target: Neu5Ac(a2-6)Gal(b1-4)GlcNAc(b1-3)GalNAc
# Method in brief: as §1
# [36] = target: Neu5Ac(a2-6)Gal(b1-4)GlcNAc6S
# Method in brief: as §1
# Neu5Ac(a2-6)GalNAc = target: Neu5Ac(a2-6)GalNAc
# Method in brief: as §1
# [37] = target: Neu5Ac(a2-6)GalNAc(b1-4)GlcNAc
# Method in brief: as §1
# [38] = target: Neu5Ac(a2-6)GlcNAc(b1-4)GlcNAc
# Method in brief: as §1
# [39] = target: Neu5Ac(a2-6)GlcNAc(b1-4)GlcNAc(b1-4)GlcNAc
# Method in brief: as §1
# Neu5Ac(a2-8)Neu5Ac = target: Neu5Ac(a2-8)Neu5Ac
# Method in brief: as §1
# [40] = target: Neu5Ac(a2-8)Neu5Ac(a2-3)Gal(b1-3)GalNAc(b1-4)[Neu5Ac(a2-8)Neu5Ac(a2-3)]Gal(b1-4)Glc
# Method in brief: as §1
# [41] = target: Neu5Ac(a2-8)Neu5Ac(a2-3)Gal(b1-4)Glc
# Method in brief: as §1
# [42] = target: Neu5Ac(a2-8)Neu5Ac(a2-3)[Gal(b1-3)GalNAc(b1-4)]Gal(b1-4)Glc
# Method in brief: as §1
# [43] = target: Neu5Ac(a2-8)Neu5Ac(a2-3)[GalNAc(b1-4)]Gal(b1-4)Glc
# Method in brief: as §1
# [44] = target: Neu5Ac(a2-8)Neu5Ac(a2-8)Neu5Ac
# Method in brief: as §1
# [45] = target: Neu5Ac(a2-8)Neu5Ac(a2-8)Neu5Ac(a2-3)Gal(b1-4)Glc
# Method in brief: as §1
# [46] = target: Neu5Ac(a2-8)Neu5Ac(a2-8)Neu5Ac(a2-3)[GalNAc(b1-4)]Gal(b1-4)Glc
# Method in brief: as §1
# [47] = target: Neu5Ac(a2-8)Neu5Ac(a2-8)Neu5Ac(a2-8)Neu5Ac(a2-3)[GalNAc(b1-4)]Gal(b1-4)Glc
# Method in brief: as §1
# [48] = target: Neu5Ac(b2-6)Gal(b1-4)GlcNAc
# Method in brief: as §1
# Neu5Ac(b2-6)GalNAc = target: Neu5Ac(b2-6)GalNAc
# Method in brief: as §1
# [49] = target: Neu5Ac9Ac(a2-3)Gal(b1-3)GlcNAc
# Method in brief: as §1
# [50] = target: Neu5Ac9Ac(a2-3)Gal(b1-4)GlcNAc
# Method in brief: as §1
# [51] = target: Neu5Ac9Ac(a2-6)Gal(b1-4)GlcNAc
# Method in brief: as §1
# [52] = target: Neu5Gc(a2-3)Gal(b1-3)GlcNAc
# Method in brief: as §1
# [53] = target: Neu5Gc(a2-3)Gal(b1-3)[Fuc(a1-4)]GlcNAc
# Method in brief: as §1
# Neu5Gc(a2-3)Gal(b1-4)Glc = target: Neu5Gc(a2-3)Gal(b1-4)Glc
# Method in brief: as §1
# [54] = target: Neu5Gc(a2-3)Gal(b1-4)GlcNAc
# Method in brief: as §1
# [55] = target: Neu5Gc(a2-3)Gal(b1-4)[Fuc(a1-3)]GlcNAc
# Method in brief: as §1
# [56] = target: Neu5Gc(a2-6)Gal(b1-4)GlcNAc
# Method in brief: as §1
# Neu5Gc(a2-6)GalNAc = target: Neu5Gc(a2-6)GalNAc
# Method in brief: as §1
# [57] = target: Neu5Gc(b2-6)Gal(b1-4)GlcNAc
# Method in brief: as §1
binder,measurement,setting,value
B1,glycan array binding signal (z-score),[1],0.19
same,glycan array binding signal (z-score),[2],-0.015
same,glycan array binding signal (z-score),[3],-0.641
same,glycan array binding signal (z-score),[4],-1.05
same,glycan array binding signal (z-score),[5],-0.896
same,glycan array binding signal (z-score),[6],0.657
same,glycan array binding signal (z-score),[7],1.69
same,glycan array binding signal (z-score),[8],0.776
same,glycan array binding signal (z-score),[9],1.9
same,glycan array binding signal (z-score),[10],-0.153
same,glycan array binding signal (z-score),[11],-0.655
same,glycan array binding signal (z-score),[12],0.408
same,glycan array binding signal (z-score),[13],-0.397
same,glycan array binding signal (z-score),Neu5Ac(a2-3)GalNAc,0.697
same,glycan array binding signal (z-score),[14],-0.193
same,glycan array binding signal (z-score),[15],-1.06
same,glycan array binding signal (z-score),[16],-0.485
same,glycan array binding signal (z-score),[17],0.609
same,glycan array binding signal (z-score),[18],-0.657
same,glycan array binding signal (z-score),Neu5Ac(a2-6)Gal,-0.918
same,glycan array binding signal (z-score),[19],-1.48
same,glycan array binding signal (z-score),Neu5Ac(a2-6)Gal(b1-4)Glc,-0.678
same,glycan array binding signal (z-score),[20],-0.169
same,glycan array binding signal (z-score),[21],1.36
same,glycan array binding signal (z-score),[22],-1.94
same,glycan array binding signal (z-score),[23],0.262
same,glycan array binding signal (z-score),[24],-0.227
same,glycan array binding signal (z-score),[25],-0.914
same,glycan array binding signal (z-score),[26],0.761
same,glycan array binding signal (z-score),[27],-0.039
same,glycan array binding signal (z-score),[28],-0.207
same,glycan array binding signal (z-score),[29],1.22
same,glycan array binding signal (z-score),[30],-0.072
same,glycan array binding signal (z-score),[31],-0.84
same,glycan array binding signal (z-score),[32],-1.61
same,glycan array binding signal (z-score),[33],-0.179
same,glycan array binding signal (z-score),[34],1.68
same,glycan array binding signal (z-score),[35],-0.264
same,glycan array binding signal (z-score),[36],0.066
same,glycan array binding signal (z-score),Neu5Ac(a2-6)GalNAc,-0.755
same,glycan array binding signal (z-score),[37],-0.801
same,glycan array binding signal (z-score),[38],-0.361
same,glycan array binding signal (z-score),[39],-0.128
same,glycan array binding signal (z-score),Neu5Ac(a2-8)Neu5Ac,-0.427
same,glycan array binding signal (z-score),[40],0.663
same,glycan array binding signal (z-score),[41],-0.849
same,glycan array binding signal (z-score),[42],0.705
same,glycan array binding signal (z-score),[43],1.28
same,glycan array binding signal (z-score),[44],-0.999
same,glycan array binding signal (z-score),[45],-1.18
same,glycan array binding signal (z-score),[46],-0.316
same,glycan array binding signal (z-score),[47],-1.37
same,glycan array binding signal (z-score),[48],-0.059
same,glycan array binding signal (z-score),Neu5Ac(b2-6)GalNAc,-1.58
same,glycan array binding signal (z-score),[49],0.94
same,glycan array binding signal (z-score),[50],-1.07
same,glycan array binding signal (z-score),[51],-0.346
same,glycan array binding signal (z-score),[52],1.16
same,glycan array binding signal (z-score),[53],0.087
same,glycan array binding signal (z-score),Neu5Gc(a2-3)Gal(b1-4)Glc,2.04
same,glycan array binding signal (z-score),[54],-1.34
same,glycan array binding signal (z-score),[55],0.769
same,glycan array binding signal (z-score),[56],0.675
same,glycan array binding signal (z-score),Neu5Gc(a2-6)GalNAc,0.341
same,glycan array binding signal (z-score),[57],-0.488

# Part of the list above, bar-delimited.
binder | measurement | setting | value
B1 | glycan array binding signal (z-score) | [43] | 1.28
same | glycan array binding signal (z-score) | [44] | -0.999
same | glycan array binding signal (z-score) | [45] | -1.18
